Laboratory results: PMC8917221
These are yes or no findings as the source states them, for the method shown. In cells and extracts the contact can be indirect. Binding calls can cover weak binding; strength is not graded here. Tags and fused reporters may be left off the sequences shown.

Experiments:
[1] = biological target: Bmc1 PrA (S. pombe Bin3/MePCE homolog Bmc1, protein A-tagged at the genomic locus) (S. pombe); assay: co-IP; as a3, with benzonase treatment
[2] = biological target: Bmc1 PrA (S. pombe Bin3/MePCE homolog Bmc1, protein A-tagged at the genomic locus) (S. pombe); assay: co-IP; as a3, in a TER1 knockout strain
[3] = biological target: Bmc1 PrA (S. pombe Bin3/MePCE homolog Bmc1, protein A-tagged at the genomic locus) (S. pombe); assay: co-IP; S. pombe lysate in Co-IP lysis buffer (10 mM Tris HCl pH 7.5, 150 mM NaCl, 0.5% NP40); western blots with anti-myc and anti-Protein A

binding [1]: binds
binding [2]: binds
binding [3]: binds
B1: Pof8-myc (protein, UniProt O13795 1-402)
chain: MFVPRQLNVRKIKAFTGKENNSIADGNNNKLKDEHYKHNEASKEPSHSISGGLMLNQQDRQLIEPLNPDFLSAVDSILEIYFHRERQKEKVHLAFLIQQDDFWKGIRPNPTQNNLKYALSYVTNALFHFDNSSHMVIRNENIVLPLDIPLYDRIIYVEPVPATLSNKSLLLAGKLRKYLKEFLPYVDAIGTPEGYAFVILYKKVDQSALSKLPVPPGWVLLTRKEWTNREEKYFENQLHLVKASSSDVSNSSNSFPENRYPKLTKVEKQMTKSVSKTSQTDKDEDNLDFTKNLLTRIKNLHPLTNKSTIHSLLSYVFSRQTQNIACEPMYIDYRKDETEAIIRWKTPLHAETCINAFRTQERKQNSHDDIRAHRKKGSSRPFLIAELITGEEEKNYWRMLKK
